# From the supplement of paper PMC8728848
# The list shows a part of the results.
# B1: Mermaid1 (Stilbonema majum) (protein)
# chain: MGSSHHHHHHSSGLVPRGSHMAASGWLRSPQGTVVKLYRRSLSWSKADEFCKDVDGRLVVDRTADMHLFLIKNVLKEKKSRVWVGLRRTAPHSRTWIWSDGTRQNEDDLDANLWLRDEPNDAAGEEECALFMYSPWEKAWGLNDYLCRGGCRSYQFICEKWIR
# Legend:
# Assay in all cases: glycan array binding signal (z-score within array); higher = stronger binding
# Settings in all cases: glycan notation: IUPAC condensed, linker removed
# [1] = molecular target: GalNAc(b1-4)GlcNAc(b1-2)Man
# Procedure, shortened: (§1)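 From the Consortium for Functional Glycomics database, 3228 arrays were curated, keeping only those whose protein sequence was available. Binding is given as a within-array Z-score averaged across arrays sharing a protein sequence and across linkers. Negative Z-scores can be read as non-binding.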
# [2] = molecular target: GalNAc(b1-4)GlcNAc(b1-2)Man(a1-3)[GalNAc(b1-4)GlcNAc(b1-2)Man(a1-6)]Man(b1-4)GlcNAc(b1-4)GlcNAc
# Procedure, shortened: as §1
# [3] = molecular target: GalNAc(b1-4)GlcNAc(b1-3)GalNAc(b1-4)GlcNAc
# Procedure, shortened: as §1
# [4] = molecular target: GalNAc(b1-4)GlcNAc6S
# Procedure, shortened: as §1
# [5] = molecular target: GalNAc(b1-6)GalNAc
# Procedure, shortened: as §1
# [6] = molecular target: GalNAc3S(b1-4)GlcNAc
# Procedure, shortened: as §1
# [7] = molecular target: GalNAc3S(b1-4)GlcNAc3S
# Procedure, shortened: as §1
# [8] = molecular target: GalNAc3S(b1-4)[Fuc(a1-3)]GlcNAc
# Procedure, shortened: as §1
# [9] = molecular target: GalNAc4S6S(b1-4)GlcNAc
# Procedure, shortened: as §1
# [10] = molecular target: GalNAc6S(b1-4)GlcNAc
# Procedure, shortened: as §1
# [11] = molecular target: Glc(a1-4)Glc
# Procedure, shortened: as §1
# [12] = molecular target: Glc(a1-4)Glc(a1-4)Glc(a1-4)Glc
# Procedure, shortened: as §1
# [13] = molecular target: Glc(a1-6)Glc(a1-6)Glc
# Procedure, shortened: as §1
# [14] = molecular target: Glc(a1-6)Glc(a1-6)Glc(a1-6)Glc
# Procedure, shortened: as §1
# [15] = molecular target: Glc(b1-4)Glc
# Procedure, shortened: as §1
# [16] = molecular target: Glc(b1-6)Glc
# Procedure, shortened: as §1
# [17] = molecular target: GlcA(b1-3)Gal
# Procedure, shortened: as §1
# [18] = molecular target: GlcA(b1-3)GlcNAc
# Procedure, shortened: as §1
# [19] = molecular target: GlcA(b1-6)Gal
# Procedure, shortened: as §1
# [20] = molecular target: GlcA3S(b1-3)Gal(b1-4)GlcNAc(b1-2)Man
# Procedure, shortened: as §1
# [21] = molecular target: GlcA3S(b1-3)Gal(b1-4)GlcNAc(b1-3)Gal(b1-4)Glc
# Procedure, shortened: as §1
# [22] = molecular target: GlcNAc(a1-3)Gal(b1-4)GlcNAc
# Procedure, shortened: as §1
# [23] = molecular target: GlcNAc(a1-4)Gal(b1-3)GlcNAc
# Procedure, shortened: as §1
# [24] = molecular target: GlcNAc(a1-4)Gal(b1-4)GalNAc
# Procedure, shortened: as §1
# [25] = molecular target: GlcNAc(a1-4)Gal(b1-4)GlcNAc
# Procedure, shortened: as §1
# [26] = molecular target: GlcNAc(a1-4)Gal(b1-4)GlcNAc(b1-3)Gal(b1-4)Glc
# Procedure, shortened: as §1
# [27] = molecular target: GlcNAc(a1-4)Gal(b1-4)GlcNAc(b1-3)Gal(b1-4)GlcNAc
# Procedure, shortened: as §1
# [28] = molecular target: GlcNAc(a1-4)Gal(b1-4)GlcNAc(b1-3)Gal(b1-4)GlcNAc(b1-3)Gal(b1-4)GlcNAc
# Procedure, shortened: as §1
# [29] = molecular target: GlcNAc(a1-4)Gal(b1-4)GlcNAc(b1-3)Gal(b1-4)[Fuc(a1-3)]GlcNAc(b1-3)Gal(b1-4)[Fuc(a1-3)]GlcNAc
# Procedure, shortened: as §1
# [30] = molecular target: GlcNAc(a1-6)Gal(b1-4)GlcNAc
# Procedure, shortened: as §1
# [31] = molecular target: GlcNAc(b1-2)Gal(b1-3)GalNAc
# Procedure, shortened: as §1
# [32] = molecular target: GlcNAc(b1-2)Man(a1-3)[GlcNAc(b1-2)Man(a1-6)]Man(b1-4)GlcNAc(b1-4)GlcNAc
# Procedure, shortened: as §1
# [33] = molecular target: GlcNAc(b1-2)Man(a1-3)[GlcNAc(b1-2)Man(a1-6)]Man(b1-4)GlcNAc(b1-4)[Fuc(a1-6)]GlcNAc
# Procedure, shortened: as §1
# [34] = molecular target: GlcNAc(b1-2)Man(a1-3)[GlcNAc(b1-4)][GlcNAc(b1-2)Man(a1-6)]Man(b1-4)GlcNAc(b1-4)GlcNAc
# Procedure, shortened: as §1
# [35] = molecular target: GlcNAc(b1-2)Man(a1-3)[GlcNAc(b1-4)][GlcNAc(b1-2)Man(a1-6)]Man(b1-4)GlcNAc(b1-4)[Fuc(a1-6)]GlcNAc
# Procedure, shortened: as §1
# [36] = molecular target: GlcNAc(b1-2)[GlcNAc(b1-4)]Man(a1-3)[GlcNAc(b1-2)Man(a1-6)]Man(b1-4)GlcNAc(b1-4)GlcNAc
# Procedure, shortened: as §1
# [37] = molecular target: GlcNAc(b1-2)[GlcNAc(b1-4)]Man(a1-3)[GlcNAc(b1-4)][GlcNAc(b1-2)Man(a1-6)]Man(b1-4)GlcNAc(b1-4)GlcNAc
# Procedure, shortened: as §1
# [38] = molecular target: GlcNAc(b1-2)[GlcNAc(b1-4)]Man(a1-3)[GlcNAc(b1-4)][GlcNAc(b1-2)[GlcNAc(b1-6)]Man(a1-6)]Man(b1-4)GlcNAc(b1-4)GlcNAc
# Procedure, shortened: as §1
# [39] = molecular target: GlcNAc(b1-2)[GlcNAc(b1-4)]Man(a1-3)[GlcNAc(b1-4)][GlcNAc(b1-2)[GlcNAc(b1-6)]Man(a1-6)]Man(b1-4)GlcNAc(b1-4)[Fuc(a1-6)]GlcNAc
# Procedure, shortened: as §1
# [40] = molecular target: GlcNAc(b1-2)[GlcNAc(b1-6)]Man(a1-6)[GlcNAc(b1-2)Man(a1-3)]Man(b1-4)GlcNAc(b1-4)GlcNAc
# Procedure, shortened: as §1
# [41] = molecular target: GlcNAc(b1-2)[GlcNAc(b1-6)]Man(a1-6)[GlcNAc(b1-2)Man(a1-3)]Man(b1-4)GlcNAc(b1-4)[Fuc(a1-6)]GlcNAc
# Procedure, shortened: as §1
# [42] = molecular target: GlcNAc(b1-2)[GlcNAc(b1-6)]Man(a1-6)[GlcNAc(b1-4)][GlcNAc(b1-2)Man(a1-3)]Man(b1-4)GlcNAc(b1-4)GlcNAc
# Procedure, shortened: as §1
# [43] = molecular target: GlcNAc(b1-3)Fuc
# Procedure, shortened: as §1
# [44] = molecular target: GlcNAc(b1-3)Gal
# Procedure, shortened: as §1
# [45] = molecular target: GlcNAc(b1-3)Gal(b1-3)GalNAc
# Procedure, shortened: as §1
binder,measurement,setting,value
B1,glycan array binding signal (z-score),[1],3.48
same,glycan array binding signal (z-score),[2],-0.923
same,glycan array binding signal (z-score),[3],1.28
same,glycan array binding signal (z-score),[4],2.33
same,glycan array binding signal (z-score),[5],-0.356
same,glycan array binding signal (z-score),[6],-0.812
same,glycan array binding signal (z-score),[7],-0.766
same,glycan array binding signal (z-score),[8],0.714
same,glycan array binding signal (z-score),[9],-0.9
same,glycan array binding signal (z-score),[10],0.654
same,glycan array binding signal (z-score),[11],0.065
same,glycan array binding signal (z-score),[12],0.253
same,glycan array binding signal (z-score),[13],-0.31
same,glycan array binding signal (z-score),[14],1.52
same,glycan array binding signal (z-score),[15],0.159
same,glycan array binding signal (z-score),[16],-0.151
same,glycan array binding signal (z-score),[17],-0.437
same,glycan array binding signal (z-score),[18],-0.379
same,glycan array binding signal (z-score),[19],1.57
same,glycan array binding signal (z-score),[20],0.412
same,glycan array binding signal (z-score),[21],-0.35
same,glycan array binding signal (z-score),[22],-0.463
same,glycan array binding signal (z-score),[23],-0.025
same,glycan array binding signal (z-score),[24],0.202
same,glycan array binding signal (z-score),[25],-0.605
same,glycan array binding signal (z-score),[26],-0.738
same,glycan array binding signal (z-score),[27],-0.092
same,glycan array binding signal (z-score),[28],-0.79
same,glycan array binding signal (z-score),[29],-0.193
same,glycan array binding signal (z-score),[30],-0.451
same,glycan array binding signal (z-score),[31],-0.353
same,glycan array binding signal (z-score),[32],-0.645
same,glycan array binding signal (z-score),[33],0.566
same,glycan array binding signal (z-score),[34],-0.618
same,glycan array binding signal (z-score),[35],0.314
same,glycan array binding signal (z-score),[36],-0.141
same,glycan array binding signal (z-score),[37],-0.515
same,glycan array binding signal (z-score),[38],-0.221
same,glycan array binding signal (z-score),[39],-0.663
same,glycan array binding signal (z-score),[40],0.076
same,glycan array binding signal (z-score),[41],-0.878
same,glycan array binding signal (z-score),[42],-0.438
same,glycan array binding signal (z-score),[43],-0.068
same,glycan array binding signal (z-score),[44],1.31
same,glycan array binding signal (z-score),[45],-0.864

# A section from further up, as a working copy:
binder,measurement,setting,value
B1,glycan array binding signal (z-score),[18],-0.379
same,glycan array binding signal (z-score),[19],1.57
same,glycan array binding signal (z-score),[20],0.412
